Measured values from patent publication US20200407723.
For at least one entry, the source does not settle the construct or the ends of the probe. For some assays here: A negative result means that nothing was seen under these conditions.

Legend:
[1] = system: rabbit IgG (Oryctolagus cuniculus); experiment: pull-down; details: 2'-F U at 6, 9, 21; 2'-F C at 20; ribonucleotides at A3, G4, G5, G7, G16, G17; all other positions deoxyribonucleotides; negative control; negligible non-specific binding in Tris with Mg2+; high non-specific binding with Zn2+ or Mn2+; purified native protein; protein details: Sigma-Aldrich; label: 5'-biotin
[2] = system: human IgG (polyclonal, from serum + Fc domain) (Homo sapiens); experiment: pull-down; details: 2'-F U at 6, 9, 21; 2'-F C at 20; ribonucleotides at A3, G4, G5, G7, G16, G17; all other positions deoxyribonucleotides; immobilized on streptavidin resin; best in 10 mM Tris pH 7.2 with Mg2+ 50 uM-1 mM; max capacity about 6.5 ug hIgG/ug aptamer in 10 mM Tris, 0.5 mM Mg; purified native protein; protein details: Sigma-Aldrich, IgG from human serum; label: 5'-biotin

“GGAGGUGCUCCGAAAGGAACUCC [anti-human Fc 23-nt aptamer SEQ ID NO 1]”: no binding [1]; binds [2].
